From publication PMC11736009
Results are given in words; binding and its absence hold for the method and conditions named. For some assays here: In cells and extracts the contact can be indirect. Some results given as binding are weak or reduced against the parent protein; the word gives no strength.

Chains of the proteins cited; added tags and fusions are not shown. Lines headed by an entry give the natural chain unless they say otherwise; changes in a name come on top.
UniProt Q9Z207: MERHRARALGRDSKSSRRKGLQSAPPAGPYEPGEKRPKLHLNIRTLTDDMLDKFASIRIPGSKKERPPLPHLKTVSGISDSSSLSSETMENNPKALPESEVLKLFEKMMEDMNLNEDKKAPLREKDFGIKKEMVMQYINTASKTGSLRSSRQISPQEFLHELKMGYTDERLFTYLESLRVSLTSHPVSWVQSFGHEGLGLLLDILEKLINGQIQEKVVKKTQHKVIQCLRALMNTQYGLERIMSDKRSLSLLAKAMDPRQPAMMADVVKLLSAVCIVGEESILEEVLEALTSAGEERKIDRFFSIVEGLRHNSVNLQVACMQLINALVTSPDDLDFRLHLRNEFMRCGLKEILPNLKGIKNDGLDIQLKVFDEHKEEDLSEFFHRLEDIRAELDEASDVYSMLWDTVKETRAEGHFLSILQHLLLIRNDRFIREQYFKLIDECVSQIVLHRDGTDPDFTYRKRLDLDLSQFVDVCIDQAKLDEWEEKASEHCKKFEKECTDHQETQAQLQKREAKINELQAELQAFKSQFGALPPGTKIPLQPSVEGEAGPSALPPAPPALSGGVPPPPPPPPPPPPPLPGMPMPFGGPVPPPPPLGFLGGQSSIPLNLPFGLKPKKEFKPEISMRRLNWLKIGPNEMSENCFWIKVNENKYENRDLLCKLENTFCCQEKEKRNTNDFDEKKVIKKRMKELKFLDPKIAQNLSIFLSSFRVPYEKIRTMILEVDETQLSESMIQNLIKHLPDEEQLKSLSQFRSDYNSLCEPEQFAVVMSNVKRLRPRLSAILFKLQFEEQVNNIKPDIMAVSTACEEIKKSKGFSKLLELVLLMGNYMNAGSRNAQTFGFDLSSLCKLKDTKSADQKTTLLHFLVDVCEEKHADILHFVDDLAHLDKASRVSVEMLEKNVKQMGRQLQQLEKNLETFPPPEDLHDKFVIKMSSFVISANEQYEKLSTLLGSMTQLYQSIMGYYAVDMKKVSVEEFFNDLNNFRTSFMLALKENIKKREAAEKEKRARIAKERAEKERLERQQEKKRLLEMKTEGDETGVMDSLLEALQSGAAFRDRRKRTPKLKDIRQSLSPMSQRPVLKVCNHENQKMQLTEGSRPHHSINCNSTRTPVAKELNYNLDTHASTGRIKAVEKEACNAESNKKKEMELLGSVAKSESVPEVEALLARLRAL
UniProt Q9WUD1: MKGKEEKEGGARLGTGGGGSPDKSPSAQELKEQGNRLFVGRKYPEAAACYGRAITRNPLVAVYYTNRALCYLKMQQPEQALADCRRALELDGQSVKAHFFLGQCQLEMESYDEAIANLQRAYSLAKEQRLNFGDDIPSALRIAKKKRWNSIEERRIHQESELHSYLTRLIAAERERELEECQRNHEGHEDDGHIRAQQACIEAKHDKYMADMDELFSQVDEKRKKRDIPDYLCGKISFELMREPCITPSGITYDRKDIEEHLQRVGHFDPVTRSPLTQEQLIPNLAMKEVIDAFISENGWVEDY
UniProt Q91W96: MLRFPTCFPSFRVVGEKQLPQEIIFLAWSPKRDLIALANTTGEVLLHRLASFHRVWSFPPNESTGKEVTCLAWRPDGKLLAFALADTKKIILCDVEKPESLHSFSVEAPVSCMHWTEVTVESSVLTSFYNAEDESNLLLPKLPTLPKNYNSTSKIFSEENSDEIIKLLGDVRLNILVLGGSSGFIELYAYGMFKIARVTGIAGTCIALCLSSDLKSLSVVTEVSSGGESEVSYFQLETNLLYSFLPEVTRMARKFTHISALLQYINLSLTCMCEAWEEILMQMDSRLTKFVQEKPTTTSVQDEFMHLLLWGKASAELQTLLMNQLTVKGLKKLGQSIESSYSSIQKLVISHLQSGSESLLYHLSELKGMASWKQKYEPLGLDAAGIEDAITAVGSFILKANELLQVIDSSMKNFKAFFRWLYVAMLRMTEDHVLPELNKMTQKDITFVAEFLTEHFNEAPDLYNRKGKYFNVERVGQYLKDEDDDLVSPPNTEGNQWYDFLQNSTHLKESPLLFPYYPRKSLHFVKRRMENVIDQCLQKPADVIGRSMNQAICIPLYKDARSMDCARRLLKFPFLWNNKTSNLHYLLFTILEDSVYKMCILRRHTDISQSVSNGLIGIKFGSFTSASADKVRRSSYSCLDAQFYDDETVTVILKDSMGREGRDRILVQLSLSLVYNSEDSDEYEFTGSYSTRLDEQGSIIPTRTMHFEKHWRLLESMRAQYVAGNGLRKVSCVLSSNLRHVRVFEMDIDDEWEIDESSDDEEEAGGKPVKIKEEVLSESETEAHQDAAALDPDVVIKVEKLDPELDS

Assays:
[1] = target: full-length WT Diaph3-Flag (mouse) (UniProt Q9Z207); test: co-IP; HEK293T cells cotransfected, harvested 48 h later; lysate incubated with Flag beads at 4 °C overnight, washed 3 to 4 times with lysis buffer; Western blot
[2] = target: full-length Diaph3-M1041A-Flag (mouse) (UniProt Q9Z207); test: as above
[3] = target: full-length WT Diaph3-Flag (mouse) (UniProt Q9Z207); test: native gel or EMSA; nondenaturing PAGE of lysates of transfected cells, without SDS and mercaptoethanol, at 0 to 4 °C; Western blot

| Substance | binding [1] | binding [2] | binding [3] |
| --- | --- | --- | --- |
| Stub1 (overexpressed) (from UniProt Q9WUD1 1-304) (enzyme) | binds | binds |  |
| Anapc4 (overexpressed) (from UniProt Q91W96 1-807) | binds | binds |  |
| full-length WT Diaph3-Flag (from UniProt Q9Z207 1-1171) |  |  | binds |
